In the supplement of paper PMC6078165:
Values are relative to the signal before dosing, not to a vehicle control; the signal also falls without drug.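 Fibroblast labels name human fibroblasts: mostly primary ones from tissues such as uterus (C12385, HUF), lung (H6013), bone (Hs27A), adrenal (HADF) and skin (WS1), plus mammary HMF and breast cancer-associated Hs343T. The cancer cells are basal-like or mesenchymal-like triple-negative breast cancer lines. The paper calls a changed response a hit when it shifts by more than 3x the replicate standard deviation. The tissue of the other fibroblasts is not given here.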

System: MDAMB231
Assay: relative JC-1 red fluorescence (viability) vs pre-drug, coculture with fibroblast (fraction); higher = more viable cancer cells
Procedure: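 JC-1 labelled TNBC cells cocultured 1:1 (1,500 cells each) with CellTrace Violet stained primary or stromal fibroblasts in 384-well plates in FluoroBrite medium, treated with one of 42 anticancer drugs at 0.1, 1, 10 or 100 uM. JC-1 red fluorescence (mitochondrial integrity in cancer cells only) was read by plate reader every 8 h for 72 h. Values are normalised to each well's pre-drug value. The stock of one drug was tenfold lower, so its dose labels may be too high.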

C=C1C[C@@H]2[C@H](CC[C@]3(C)C(=O)CC[C@@H]23)[C@@]2(C)C=CC(=O)C=C12 [Exemestane]
relative JC-1 red fluorescence
Details	8 h	16 h	24 h	32 h	40 h	48 h	56 h	64 h	72 h
0.1 µM, coculture fibroblast: C12385	0.778	0.711	0.674	0.608	0.551	0.531	0.489	0.483	0.471
0.1 µM, coculture fibroblast: H6013	0.901	0.819	0.754	0.735	0.678	0.655	0.637	0.614	0.571
0.1 µM, coculture fibroblast: H6019	0.811	0.728	0.691	0.659	0.596	0.57	0.521	0.505	0.472
0.1 µM, coculture fibroblast: H6076	0.882	0.7573	0.678	0.639	0.582	0.541	0.507	0.484	0.47
0.1 µM, coculture fibroblast: H6231	0.931	0.866	0.782	0.733	0.677	0.637	0.59	0.571	0.542
0.1 µM, coculture fibroblast: HADF	0.88	0.825	0.749	0.708	0.658	0.604	0.577	0.556	0.501
0.1 µM, coculture fibroblast: HCFa	0.901	0.828	0.812	0.796	0.754	0.721	0.684	0.658	0.609
0.1 µM, coculture fibroblast: HCPF	0.878	0.788	0.697	0.667	0.604	0.555	0.518	0.49	0.464
0.1 µM, coculture fibroblast: HHSteC	0.9069	0.8424	0.789	0.744	0.698	0.669	0.623	0.598	0.553
0.1 µM, coculture fibroblast: HMF	0.887	0.872	0.771	0.73	0.676	0.624	0.567	0.537	0.506
0.1 µM, coculture fibroblast: HPFa	0.933	0.867	0.806	0.756	0.719	0.683	0.632	0.602	0.544
0.1 µM, coculture fibroblast: HUF	0.849	0.758	0.723	0.599	0.526	0.505	0.444	0.442	0.421
0.1 µM, coculture fibroblast: Hs5	0.8646	0.7667	0.707	0.659	0.614	0.567	0.535	0.5079	0.472
0.1 µM, coculture fibroblast: Hs27A	0.8795	0.816	0.7693	0.755	0.708	0.655	0.648	0.622	0.565
0.1 µM, coculture fibroblast: Hs343T	0.847	0.704	0.644	0.5945	0.5426	0.497	0.444	0.42	0.389
0.1 µM, coculture fibroblast: WS1	0.7965	0.714	0.689	0.6466	0.608	0.5867	0.54	0.529	0.511
1 µM, coculture fibroblast: C12385	0.773	0.691	0.731	0.64	0.576	0.562	0.525	0.541	0.532
1 µM, coculture fibroblast: H6013	0.887	0.8226	0.7892	0.7744	0.734	0.718	0.694	0.674	0.632
1 µM, coculture fibroblast: H6019	0.763	0.68	0.679	0.618	0.563	0.537	0.486	0.465	0.421
1 µM, coculture fibroblast: H6076	0.896	0.83	0.7952	0.777	0.747	0.718	0.701	0.682	0.666
1 µM, coculture fibroblast: H6231	0.9184	0.8206	0.748	0.684	0.62	0.581	0.543	0.516	0.484
1 µM, coculture fibroblast: HADF	0.885	0.812	0.797	0.774	0.742	0.731	0.69	0.679	0.633
1 µM, coculture fibroblast: HCFa	0.896	0.826	0.7967	0.761	0.719	0.678	0.636	0.6	0.543
1 µM, coculture fibroblast: HCPF	0.905	0.822	0.788	0.771	0.717	0.687	0.665	0.634	0.612
1 µM, coculture fibroblast: HHSteC	0.917	0.893	0.838	0.791	0.743	0.701	0.65	0.624	0.576
1 µM, coculture fibroblast: HMF	0.8645	0.759	0.693	0.665	0.607	0.566	0.53	0.515	0.489
1 µM, coculture fibroblast: HPFa	0.9784	0.923	0.883	0.838	0.804	0.766	0.713	0.676	0.615
1 µM, coculture fibroblast: HUF	0.85	0.765	0.7415	0.642	0.57	0.5559	0.495	0.473	0.45
1 µM, coculture fibroblast: Hs5	0.903	0.81	0.751	0.71	0.66	0.607	0.571	0.535	0.505
1 µM, coculture fibroblast: Hs27A	0.882	0.817	0.784	0.7539	0.7045	0.64902	0.6354	0.607	0.544
1 µM, coculture fibroblast: Hs343T	0.9058	0.7813	0.7346	0.7023	0.65	0.598	0.556	0.533	0.49823
1 µM, coculture fibroblast: WS1	0.744	0.654	0.603	0.542	0.495	0.457	0.404	0.389	0.366
